This is an account of results in doi:10.1101/2025.11.28.691250.

No constants are given. Whether binding was seen depends on the method and setting. Binding seen in cells or lysates may run through a third protein. Some entries that bind do so weakly or less than the wild type.

Assay [1] deals with T1, X chromosome-associated protein 5 (Xap5) (mouse (endogenous in NIH/3T3)) (UniProt Q9WV03).
T1 sequence: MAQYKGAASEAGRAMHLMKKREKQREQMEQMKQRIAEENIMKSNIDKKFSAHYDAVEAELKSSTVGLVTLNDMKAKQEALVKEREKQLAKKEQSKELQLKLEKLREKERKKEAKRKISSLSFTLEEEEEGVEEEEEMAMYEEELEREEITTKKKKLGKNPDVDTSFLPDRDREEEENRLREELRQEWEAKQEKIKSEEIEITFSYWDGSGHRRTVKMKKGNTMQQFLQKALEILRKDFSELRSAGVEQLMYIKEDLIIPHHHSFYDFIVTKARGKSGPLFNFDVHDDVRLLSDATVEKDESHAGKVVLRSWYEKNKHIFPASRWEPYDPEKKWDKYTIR
The assay can be described thus: co-IP.

For assay [2], the target named is T2, Non-POU domain-containing octamer-binding protein (Nono) (mouse (endogenous in NIH/3T3)) (UniProt Q99K48).
T2 sequence: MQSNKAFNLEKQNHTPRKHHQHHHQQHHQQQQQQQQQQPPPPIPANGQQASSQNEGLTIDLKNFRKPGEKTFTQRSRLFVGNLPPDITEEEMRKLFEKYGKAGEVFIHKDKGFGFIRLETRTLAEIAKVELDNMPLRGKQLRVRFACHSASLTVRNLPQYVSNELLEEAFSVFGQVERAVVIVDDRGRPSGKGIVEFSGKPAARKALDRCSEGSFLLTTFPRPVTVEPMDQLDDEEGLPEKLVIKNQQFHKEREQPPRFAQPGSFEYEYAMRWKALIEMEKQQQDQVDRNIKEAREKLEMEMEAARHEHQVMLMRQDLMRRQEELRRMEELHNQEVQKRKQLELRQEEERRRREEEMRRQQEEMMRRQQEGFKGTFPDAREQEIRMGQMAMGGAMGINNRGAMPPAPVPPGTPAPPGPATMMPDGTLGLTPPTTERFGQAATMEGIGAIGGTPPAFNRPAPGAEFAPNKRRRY
Description: co-IP.

B1: Non-POU domain-containing octamer-binding protein (Nono) (protein, UniProt Q99K48 1-473)
chain: T2 sequence
For B1, the binding result in assay [1] was “binds”.

B2: X chromosome-associated protein 5 (Xap5) (protein, UniProt Q9WV03 1-339)
chain: T1 sequence
Consider B2, for which the binding entry in assay [2] is “binds”.
